Data reported in US12134663B2, “Cationic peptides for activating Lck” (Interk Peptide Therapeutics Limited, priority 2018, dated 2024).
Part of at least one peptide drawing is inferred or uncertain, most often the ends. Where a SMILES comes first, the peptide text is derived from it. [ ]: non-standard residue; d: D form. ξ: configuration not given here. ξGly(decyl) = CCCCCCCCCCC(N)C(=O)O

Sequences of proteins named here, by UniProt entry; tags and fusion partners are left off. A change or cut given only in a name is not applied to a line headed by its entry.
UniProt P06239: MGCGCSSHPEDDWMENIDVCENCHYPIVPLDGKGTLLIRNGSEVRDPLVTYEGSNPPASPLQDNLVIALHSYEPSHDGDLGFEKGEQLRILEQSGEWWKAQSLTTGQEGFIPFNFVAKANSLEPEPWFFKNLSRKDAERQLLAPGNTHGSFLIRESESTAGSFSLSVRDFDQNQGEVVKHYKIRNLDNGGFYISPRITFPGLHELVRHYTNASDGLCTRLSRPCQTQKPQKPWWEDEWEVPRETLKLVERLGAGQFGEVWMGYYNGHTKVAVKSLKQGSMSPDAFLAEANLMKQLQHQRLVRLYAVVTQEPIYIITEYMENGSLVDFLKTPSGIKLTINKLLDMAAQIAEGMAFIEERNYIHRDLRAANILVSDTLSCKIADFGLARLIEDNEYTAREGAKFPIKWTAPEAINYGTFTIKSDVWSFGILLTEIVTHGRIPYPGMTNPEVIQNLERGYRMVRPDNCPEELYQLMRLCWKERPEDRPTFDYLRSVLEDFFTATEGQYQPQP

Legend:
[1] = system: wild-type Jurkat cells; test: IL-12 secretion in stimulated wild-type Jurkat cells (ELISA); format: cell-based, human; conditions: Example 41, FIG. 38; 48 h exposure; supernatants analyzed for IL-12
Experimental: (§1) The ability of Lck activating polypeptides to alter IL-12 secretion was examined. In brief, wild-type Jurkat cells (an immortalised line of human T lymphocyte cells) were stimulated by exposure to biotinylated anti-CD3 antibody in the presence of anti-CD28 antibody and avidin. During the culture period (48 hours) cells were exposed to test polypeptides. Cell supernatant was assayed for IL-12 at the end of 48 hours using a standard commercially available ELISA kit as described above.
In brief, cells were seeded at 1 million cells per well (12 well plate, 2 mL volume) and stimulated with Biotin-CD3, CD28, and avidin (5:5:1.25 μg). The cells were then treated with IK14800 (SEQ ID NO: 24), IK15800 (SEQ ID NO: 58), IK14804 (SEQ ID NO: 65) and IK15804 (SEQ ID NO: 66). The cells were then incubated for 48 hours at 37° C. The supernatants (100 uL, n=3), were then analyzed for IL-12 content.
(§2) In brief, wild-type Jurkat cells (am immortalised line of human T lymphocyte cells) were stimulated by exposure to biotinylated anti-CD3 antibody in the presence of anti-CD28 antibody and avidin. Cells were seeded at 1 million cells per well (12 well plate, 2 mL volume) and stimulated with Biotin-anti-CD3, anti-CD28, and avidin (5:5:1.25 μg). Cells were treated with the test peptides and then incubated for 48 hours at 37° C. The supernatants (100 ul, n=3), were then analysed for IL-2 and IL-12 content. […]

[2] = target: T1, Lck (Homo sapiens, UniProt P06239); test: In vitro Lck activation kinase study (Eurofins); format: biochemical; conditions: FIG. 6
T1 construct: purchased Eurofins Pharma Discovery Services UK Limited
Experimental: The ability of polypeptides of the present invention to activate Lck was examined in vitro. Lck is member of the Src family of tyrosine kinases. […] All results in are percentage Lck activity relative to control (100%).
Test polypeptides were assessed at a concentration of 1.0 μM.
The ability of polypeptides of the present invention to activate Src family kinases was examined in vitro. Kinase activation studies utilising peptides were carried out as described in Example 1, and all kinase activity values are shown as percentage relative to control.
The ability of polypeptides comprising both lysine and arginine to activate Lck in vitro was examined. Lck activation studies utilising peptides were carried out as described in Example 1, and all kinase activity values are shown as percentage relative to control.

[3] = system: wild-type Jurkat cells; test: IL-2 secretion in stimulated wild-type Jurkat cells (ELISA); format: cell-based, human; conditions: biotinylated anti-CD3, anti-CD28, avidin; 48 h exposure
Experimental: as §1, with “In” for “The ability of Lck activating polypeptides to alter IL-12 secretion was examined. In”, “(48 hours or 72” for “(48”, “IL-2” for “IL-12”, “48 or 72” for “48”
In brief, cells were seeded at 1 million cells per well (12 well plate, 2 mL volume) and stimulated with Biotin-CD3, CD28, and avidin (5:5:1.25 μg). The cells were then treated with IK14804, and then incubated for 48 hours at 37° C. The supernatant (100 uL, n=3), was then analyzed for IL-2 content.
as §2, with “content. During the culture period (48 hours) cells were exposed to test polypeptide RSKAKNPLYR-(2Adod)4-NH2 (SEQ ID NO: 128).” for “content.”

| SMILES | IL-2 secretion relative to control [1] | dose dependence of Lck activation [2] | IL-2 secretion relative to control [3] |
| --- | --- | --- | --- |
| CCCCCCCCCCC(NC(=O)C(CCCCCCCCCC)NC(=O)C(CCCCCCCCCC)NC(=O)C(CCCCCCCCCC)NC(=O)[C@H](CCCNC(=N)N)NC(=O)[C@H](CCCNC(=N)N)NC(=O)[C@H](CCCNC(=N)N)NC(=O)[C@H](CCCNC(=N)N)NC(=O)[C@H](CCCNC(=N)N)NC(=O)[C@H](CCCNC(=N)N)NC(=O)[C@H](CCCNC(=N)N)NC(=O)[C@H](CCCNC(=N)N)NC(=O)[C@H](CCCNC(=N)N)NC(=O)[C@@H](NC(=O)[C@@H](NC(=O)[C@@H](NC(=O)[C@@H](NC(=O)[C@H](CCCCN)NC(=O)[C@@H](NC(=O)[C@H](CCCCN)NC(=O)[C@@H](NC(=O)[C@@H](N)CCCNC(=N)N)C(C)C)C(C)C)C(C)C)C(C)C)C(C)C)C(C)C)C(N)=O (stereo partly shown) [IK15804, RVKVKVVVVR-RRRRRRRR-(2Adod)4-NH2] (H-RVKVKVVVVRRRRRRRRR[ξGly(decyl)][ξGly(decyl)][ξGly(decyl)][ξGly(decyl)]-NH2) | induce IL-2 secretion | – | – |
| CCCCCCCCCCC(NC(=O)C(CCCCCCCCCC)NC(=O)C(CCCCCCCCCC)NC(=O)C(CCCCCCCCCC)NC(=O)[C@H](CCCNC(=N)N)NC(=O)[C@H](CCCNC(=N)N)NC(=O)[C@H](CCCNC(=N)N)NC(=O)[C@H](CCCNC(=N)N)NC(=O)[C@H](CCCNC(=N)N)NC(=O)[C@H](CCCNC(=N)N)NC(=O)[C@H](CCCNC(=N)N)NC(=O)[C@H](CCCNC(=N)N)NC(=O)[C@H](CCCNC(=N)N)NC(=O)[C@H](Cc1ccc(O)cc1)NC(=O)[C@H](CC(C)C)NC(=O)[C@@H]1CCCN1C(=O)[C@H](CC(N)=O)NC(=O)[C@H](CCCCN)NC(=O)[C@H](C)NC(=O)[C@H](CCCCN)NC(=O)[C@H](CO)NC(=O)[C@@H](N)CCCNC(=N)N)C(N)=O (stereo partly shown) [IK14804, RSKAKNPLYR-RRRRRRRR-(2Adod)4-NH2] (H-RSKAKNPLYRRRRRRRRR[ξGly(decyl)][ξGly(decyl)][ξGly(decyl)][ξGly(decyl)]-NH2) | induce IL-2 secretion | activate Lck in a dose dependent manner | induces IL-2 secretion |
